Assay results from doi:10.1101/2023.04.10.536212.
No constants are given. Whether binding was seen depends on the method and setting. In cells and extracts the contact can be indirect. Here binding means that the protein was enriched with, or labelled near, the bait; the list need not be complete.

Sequences of proteins named here, by UniProt entry; tags and fusion partners are left off.
UniProt Q01860: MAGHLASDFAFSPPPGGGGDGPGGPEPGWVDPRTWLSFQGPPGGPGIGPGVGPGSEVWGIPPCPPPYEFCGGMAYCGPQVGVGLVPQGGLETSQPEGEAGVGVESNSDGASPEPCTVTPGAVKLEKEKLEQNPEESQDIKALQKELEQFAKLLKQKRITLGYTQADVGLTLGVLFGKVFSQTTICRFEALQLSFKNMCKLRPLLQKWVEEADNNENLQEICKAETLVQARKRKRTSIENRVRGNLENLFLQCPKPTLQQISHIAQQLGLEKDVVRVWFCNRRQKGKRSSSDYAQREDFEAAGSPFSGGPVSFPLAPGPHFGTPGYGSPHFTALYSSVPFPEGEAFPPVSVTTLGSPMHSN
UniProt P12004: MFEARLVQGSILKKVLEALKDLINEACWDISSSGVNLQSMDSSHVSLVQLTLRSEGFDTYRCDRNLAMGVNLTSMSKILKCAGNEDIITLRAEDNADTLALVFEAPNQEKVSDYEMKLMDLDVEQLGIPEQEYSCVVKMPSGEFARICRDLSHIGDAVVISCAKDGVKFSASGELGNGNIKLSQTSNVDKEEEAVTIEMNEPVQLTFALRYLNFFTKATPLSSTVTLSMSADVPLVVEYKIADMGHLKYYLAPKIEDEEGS
UniProt P08670: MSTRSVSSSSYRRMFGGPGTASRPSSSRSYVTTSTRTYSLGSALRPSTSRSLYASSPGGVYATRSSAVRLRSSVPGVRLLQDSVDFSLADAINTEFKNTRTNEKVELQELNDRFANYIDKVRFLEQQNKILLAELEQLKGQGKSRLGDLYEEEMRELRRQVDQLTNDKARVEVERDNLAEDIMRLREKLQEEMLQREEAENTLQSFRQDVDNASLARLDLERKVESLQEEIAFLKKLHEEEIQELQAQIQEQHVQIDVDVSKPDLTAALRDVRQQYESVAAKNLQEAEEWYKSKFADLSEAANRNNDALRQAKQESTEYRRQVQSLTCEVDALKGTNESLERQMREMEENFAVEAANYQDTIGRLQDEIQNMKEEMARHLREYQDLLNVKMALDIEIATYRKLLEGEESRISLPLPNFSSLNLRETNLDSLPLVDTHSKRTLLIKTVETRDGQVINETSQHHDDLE

Molecular target: Octamer-binding transcription factor-4 (Oct4) (UniProt Q01860)
Assay: affinity purification with mass spectrometry

Row | binding | Substance
1 | binds | PCNA (from UniProt P12004 1-261)
2 | binds | Vimentin (from UniProt P08670 1-466)
